Results reported in PubChem BioAssay AID252 (DTP/NCI, 2004).
The list does not hold the whole screen: it gathers tests that were run many times, whatever their T/C, doses with no T/C, and many T/C values between a quarter and a half above the control. Other doses and runs of a compound stand elsewhere. T/C: endpoint of the treated group in % of that of the vehicle group. Some entries give survivors of the animals treated and no T/C: the source holds a T/C of zero for them, seemingly a mark for toxic or unscored doses. Some doses without a T/C left all or most animals alive at the check, yet need not have been tolerated: the source hardly ever lists a survival T/C far under the control, and the zero likely stands for such cases as well. Counts of survivors are from the toxicity check (mostly the fifth day) where no day follows; animals may have died later. Schedules are NCI's codes, read here as Q, the interval in days (D) or hours (H), X, the number of doses. For survival time, this PubChem deposit counts one and a half times the control or more as active, and values a quarter to a half above the control carry no call in these data; other NCI protocols may use other cut-offs. Some doses were run more than once; their values stand side by side, smallest first. Some schedule codes hold Z or #, which are not explained here. Some T/C values are followed by the survivors on the day toxicity was checked, most often the fifth; where none is given, no animal had died by that day.

System: BDF1 mice, intracerebral L1210 leukemia, survival T/C
Assay: NCI In Vivo Anticancer Drug Screen. Data for tumor model L1210 Leukemia (intracerebral) in B6D2F1 (BDF1) mice
Details: T/C endpoint: mean survival time, higher T/C = longer survival
How it was run: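 Transplantable tumour-bearing mice, compound-treated vs vehicle controls; read-out survival, reported as T/C ratio.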

## O=NN(CCCl)C(=O)NCCCl
dose: 2.0 mg/kg/injection, schedule: Q01DX009 (ip), vehicle: other
  T/C: 137 % of control
dose: 4.0 mg/kg/injection, schedule: Q01DX005 (ip), vehicle: saline
  T/C: 131 % of control
dose: 5.5 mg/kg/injection, schedule: Q04DX003 (ip), vehicle: saline + alcohol
  T/C: 148 % of control
dose: 6.0 mg/kg/injection, schedule: Q01DX001 (ip), vehicle: saline
  T/C: 128 and 131 % of control
dose: 7.0 mg/kg/injection, schedule: Q01DX001 (ip), vehicle: other
  T/C: 134 % of control
dose: 8.4 mg/kg/injection, schedule: Q01DX001 (ip), vehicle: saline
  T/C: 131 % of control
dose: 9.0 mg/kg/injection, schedule: Q01DX001 (ip), vehicle: saline
  T/C: 139 and 140 % of control
dose: 10.0 mg/kg/injection, schedule: Q01DX001 (ip), vehicle: other
  T/C: 134 % of control [9 of 10 alive]
dose: 10.0 mg/kg/injection, schedule: Q01DX001 (ip), vehicle: saline, evaluated on day 7
  T/C: 149 % of control
dose: 10.0 mg/kg/injection, schedule: Q01DX001 (ip), vehicle: saline, evaluated on day 15
  T/C: 154 % of control
dose: 10.0 mg/kg/injection, schedule: Q01DX001 (ip), vehicle: saline, evaluated on day 21
  T/C: 145 % of control
dose: 10.0 mg/kg/injection, schedule: Q01DX001 (ip), vehicle: saline, evaluated on day 30
  T/C: 138 and 149 % of control
dose: 10.0 mg/kg/injection, schedule: Q01DX001 (ip), vehicle: saline, evaluated on day 33
  T/C: 124 % of control
dose: 10.0 mg/kg/injection, schedule: Q01DX001 (ip), vehicle: saline, evaluated on day 40
  T/C: 128, 135, 142 % of control
dose: 10.0 mg/kg/injection, schedule: Q01DX001 (ip), vehicle: saline, evaluated on day 45
  T/C: 157 % of control
dose: 10.0 mg/kg/injection, schedule: Q01DX001 (ip), vehicle: saline, evaluated on day 60
  T/C: 162 % of control
dose: 10.0 mg/kg/injection, schedule: Q01DX001 (ip), vehicle: saline, run until all animals had died
  T/C: 135 and 157 % of control
dose: 10.0 mg/kg/injection, schedule: Q01DX001 (oral), vehicle: saline, evaluated on day 30
  T/C: 145 % of control
dose: 10.0 mg/kg/injection, schedule: Q01DX001 (oral), vehicle: saline, run until all animals had died
  T/C: 134 % of control
dose: 12.0 mg/kg/injection, schedule: Q01DX001 (ip), vehicle: saline
  T/C: 141 % of control
dose: 14.0 mg/kg/injection, schedule: Q01DX001 (ip), vehicle: saline, evaluated on day 7
  T/C: 124 % of control
dose: 14.0 mg/kg/injection, schedule: Q01DX001 (ip), vehicle: saline, evaluated on day 19
  T/C: 246 % of control
dose: 14.0 mg/kg/injection, schedule: Q01DX001 (ip), vehicle: saline, evaluated on day 27
  T/C: 130 % of control
dose: 14.0 mg/kg/injection, schedule: Q01DX001 (ip), vehicle: saline, evaluated on day 30
  T/C: 155 % of control
dose: 15.0 mg/kg/injection, schedule: Q01DX001 (ip), vehicle: saline
  T/C: 133 % of control
dose: 20.0 mg/kg/injection, schedule: Q01DX001 (ip), vehicle: saline, evaluated on day 7
  T/C: 193 % of control
dose: 20.0 mg/kg/injection, schedule: Q01DX001 (ip), vehicle: saline, evaluated on day 15
  T/C: 178 % of control
dose: 20.0 mg/kg/injection, schedule: Q01DX001 (ip), vehicle: saline, evaluated on day 21
  T/C: 194 % of control
dose: 20.0 mg/kg/injection, schedule: Q01DX001 (ip), vehicle: saline, evaluated on day 30
  T/C: 193 % of control
dose: 20.0 mg/kg/injection, schedule: Q01DX001 (ip), vehicle: saline, evaluated on day 33
  T/C: 152 % of control
dose: 20.0 mg/kg/injection, schedule: Q01DX001 (ip), vehicle: saline, evaluated on day 40
  T/C: 189 and 267 % of control
dose: 20.0 mg/kg/injection, schedule: Q01DX001 (ip), vehicle: saline, evaluated on day 45
  T/C: 264 % of control
dose: 20.0 mg/kg/injection, schedule: Q01DX001 (ip), vehicle: saline, evaluated on day 60
  T/C: 253 % of control
dose: 20.0 mg/kg/injection, schedule: Q01DX001 (ip), vehicle: saline, run until all animals had died
  T/C: 149, 230, 287 % of control
dose: 23.0 mg/kg/injection, schedule: Q01DX001 (ip), vehicle: saline, evaluated on day 7
  T/C: 193 % of control
dose: 23.0 mg/kg/injection, schedule: Q01DX001 (ip), vehicle: saline, evaluated on day 19
  T/C: 246 % of control
dose: 23.0 mg/kg/injection, schedule: Q01DX001 (ip), vehicle: saline, evaluated on day 27
  T/C: 163 % of control
dose: 23.0 mg/kg/injection, schedule: Q01DX001 (ip), vehicle: saline, evaluated on day 30
  T/C: 255 % of control [9 of 10 alive]
dose: 32.0 mg/kg/injection, schedule: Q01DX009 (ip), vehicle: other
  survivor count: 10 of 10
dose: 39.0 mg/kg/injection, schedule: Q01DX001 (ip), vehicle: saline, evaluated on day 7
  T/C: 96 % of control
dose: 39.0 mg/kg/injection, schedule: Q01DX001 (ip), vehicle: saline, evaluated on day 19
  T/C: 138 % of control
dose: 39.0 mg/kg/injection, schedule: Q01DX001 (ip), vehicle: saline, evaluated on day 27
  T/C: 101 % of control
dose: 39.0 mg/kg/injection, schedule: Q01DX001 (ip), vehicle: saline, evaluated on day 30
  T/C: 169 % of control
dose: 39.0 mg/kg/injection, schedule: Q01DX001 (ip), vehicle: saline, run until all animals had died
  T/C: 106, 272, 276, 300 % of control
dose: 40.0 mg/kg/injection, schedule: Q01DX001 (ip), vehicle: saline, evaluated on day 7
  T/C: 213 % of control
dose: 40.0 mg/kg/injection, schedule: Q01DX001 (ip), vehicle: saline, evaluated on day 21
  T/C: 190 % of control [7 of 8 alive]
dose: 40.0 mg/kg/injection, schedule: Q01DX001 (ip), vehicle: saline, evaluated on day 30
  T/C: 162 and 213 % of control
dose: 40.0 mg/kg/injection, schedule: Q01DX001 (ip), vehicle: saline, evaluated on day 33
  T/C: 297 % of control
dose: 40.0 mg/kg/injection, schedule: Q01DX001 (ip), vehicle: saline, evaluated on day 40
  T/C: 145 [7 of 8 alive], 174, 213 % of control
dose: 40.0 mg/kg/injection, schedule: Q01DX001 (ip), vehicle: saline, evaluated on day 60
  T/C: 262 % of control
dose: 62.0 mg/kg/injection, schedule: Q01DX001 (ip), vehicle: other
  T/C: 148 % of control
dose: 64.0 mg/kg/injection, schedule: Q01DX009 (ip), vehicle: other
  survivor count: 10 of 10
dose: 65.0 mg/kg/injection, schedule: Q01DX001 (ip), vehicle: saline
  survivor count: 5 of 10
dose: 79.0 mg/kg/injection, schedule: Q01DX001 (oral), vehicle: saline
  T/C: 141 % of control
dose: 80.0 mg/kg/injection, schedule: Q01DX001 (ip), vehicle: other
  survivor count: 9 of 10
dose: 96.0 mg/kg/injection, schedule: Q01DX001 (ip), vehicle: saline
  survivor count: 10 of 10
dose: 160.0 mg/kg/injection, schedule: Q01DX001 (ip), vehicle: other
  survivor count: 3 of 10
dose: 192.0 mg/kg/injection, schedule: Q01DX001 (ip), vehicle: saline
  survivor count: 1 of 10

## CCn1cnc2c(SC3CCCC3)ncnc21
dose: 15.0 mg/kg/injection, schedule: Q01DX015 (ip), vehicle: carboxymethylcellulose (CMC)
  T/C: 125 % of control
dose: 100.0 mg/kg/injection, schedule: Q01DX009 (ip), vehicle: carboxymethylcellulose (CMC)
  T/C: 131 % of control [5 of 6 alive]
dose: 125.0 mg/kg/injection, schedule: Q01DX Z (ip), vehicle: carboxymethylcellulose (CMC)
  T/C: 137 % of control
dose: 250.0 mg/kg/injection, schedule: Q01DX015 (ip), vehicle: carboxymethylcellulose (CMC)
  T/C: 148 % of control
dose: 500.0 mg/kg/injection, schedule: Q01DX015 (ip), vehicle: carboxymethylcellulose (CMC)
  T/C: 145 % of control [8 of 10 alive]
dose: 800.0 mg/kg/injection, schedule: Q01DX009 (ip), vehicle: carboxymethylcellulose (CMC)
  survivor count: 0 of 6
